PubChem BioAssay AID1471 (National Center for Advancing Translational Sciences (NCATS), 2008)
Several values for one entry are separate records, joined by “and”; a condition that tells them apart may be missing. Equal entries are not always repeated. In all, about 230,000 compounds went through this assay and about 310 (0.13%) were called active. The shares of active, inactive and inconclusive entries below differ from those in the screen. Calls follow the shape of the dose curve; as a rule, active = well fitted activation curve with a large enough effect; inconclusive = small, poorly fitted or top-dose-only effect; inactive = no such curve, though single readings can be large or run the other way. Where the call is inconclusive, the potency comes from a doubtful curve fit.

Assay: qHTS Multiplex Assay to Identify Dual Action Probes in a Cell Model of Huntington: Cytoprotection (ATP); also: nearly all actives have a fitted effect of over 45% in size;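 as to cytoprotection (ATP increase): toxic huntingtin expression switched on by the ecdysone agonist tebufenozide; % of control where 0% means no effect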
Settings: PC12 HTT-Q103 induced, ATP luminescence, 40 h; cytoprotection (ATP increase): at 56.4 µM (top of the series) unless noted
In short: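 Compounds were screened for protection of PC12 cells against cell death after tebufenozide induction (100 nM final) of mutant Huntingtin exon 1 (Q103) fused to GFP.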
Potency is read from the fitted curve at half-maximal effect.

Structure (SMILES)	Potency	cytoprotection (ATP increase)
CC(=O)OCC(COC(C)=O)OC(C)=O	inconclusive: 17.8 µM [activator, single point]	
CCCn1c(NC(=O)c2ccccc2)nc2ccccc21	inactive	
COC(=O)[C@@]1(Cc2ccc(F)cc2)[C@H]2c3cc(C(=O)N(C)C)n(Cc4nc5ccccc5[nH]4)c3C[C@H]2CN1C(=O)c1ccccc1	inconclusive: 0.251 µM [activator, full curve]	
COc1ccc2oc(C(=O)NCCC(C)C)c(C)c2c1	inconclusive: 3.16 µM [activator, single point]	
COc1ccc(-c2nnn(-c3cc(Cl)cc(Cl)c3)c2N)cc1		inactive: 22.8% [at 10 µM]
O=C(Nc1nonc1-c1ccc(Cl)cc1)c1ccccc1	inconclusive: 0.794 µM [activator, single point]	
O=C(Cn1ccnc1[N+](=O)[O-])NCCO	inconclusive: 10 µM [activator, partial curve, poor fit]	
O=c1cc(-c2ccccc2)oc2cc(O[C@@H]3O[C@H](CO)[C@@H](O)[C@H](O)[C@H]3O)c(O)c(O)c12		inactive: -1.31% [at 1.9 µM]
CC1NC(=S)N(C2CCCCC2)C1=O (centres undefined)	inconclusive: 31.6 µM [activator, single point]	
COc1ccc(-c2nc3cnc(N(C)C)nc3n(CCc3ccccc3)c2=O)cc1	inconclusive: 6.31 µM [activator, partial curve, poor fit]	
O=C(CSc1cn(Cc2ccccc2)c2ccccc12)Nc1nccs1	inactive	
N=c1ncn(Cc2ccccc2)c2nc(SCCOc3ccccc3)[nH]c12		inactive: -55.5% [at 10 µM]
Cc1nc([N+](=O)[O-])c(NCCO)n1Cc1ccccc1	inactive	
C=C(C)c1ccc(C(C)(C)NC(=O)N(Cc2ccccc2)Cc2ccco2)cc1		inactive: -6.19% [at 10 µM]
CCCn1c(C)nc2c(NCCCCN(CC)CC)nc(C)nc21	inconclusive: 7.94 µM [activator, partial curve]	
CCOc1ccc(C(=O)NC(=S)N2CCN(c3ccc(C(F)(F)F)cc3[N+](=O)[O-])CC2)cc1	inconclusive: 3.55 µM [activator, partial curve]	
CC(=O)OC[C@@H]1O[C@@H](O/N=C2/C[C@@H](O)[C@@H](O)[C@@H]3[C@@H]4C(=O)N(Cc5ccccc5)C(=O)[C@H]4CC[C@H]23)[C@H](OC(C)=O)[C@H](OC(C)=O)[C@@H]1OC(C)=O		inactive: -16% [at 10 µM]
O=c1cc(-c2ccc(O)cc2)oc2cc(O)cc(O)c12	inconclusive: 1.26 µM [activator, partial curve, poor fit] and inconclusive: 631 nM [activator, partial curve, poor fit] and inconclusive: 794 nM [activator, single point]	
CCCCc1c(O)nc(SCC(=O)NCC2CCCO2)[nH]c1=O (centres undefined)	inconclusive: 3.55 µM [activator, single point]	
COc1ccc(CNC(=O)CCS(=O)(=O)c2cccc3nonc23)cc1	active: 3.55 µM	
Cc1ccc(CN2CCN(/N=C/c3cccn3C)CC2)c(C)c1	inconclusive: 5.62 µM [activator, single point]	
COc1ccccc1N1CCN(C(=O)COc2ccc(S(=O)(=O)NC(C)(C)C)cc2)CC1	inconclusive: 11.2 µM [activator, single point]	

Nothing new here: an excerpt of the list.
Structure (SMILES)	Potency	cytoprotection (ATP increase)
O=c1cc(-c2ccc(O)cc2)oc2cc(O)cc(O)c12	inconclusive: 1.26 µM [activator, partial curve, poor fit] and inconclusive: 631 nM [activator, partial curve, poor fit] and inconclusive: 794 nM [activator, single point]	
CCCCc1c(O)nc(SCC(=O)NCC2CCCO2)[nH]c1=O (centres undefined)	inconclusive: 3.55 µM [activator, single point]	
COc1ccc(CNC(=O)CCS(=O)(=O)c2cccc3nonc23)cc1	active: 3.55 µM	
Cc1ccc(CN2CCN(/N=C/c3cccn3C)CC2)c(C)c1	inconclusive: 5.62 µM [activator, single point]	

Carrying on.

Structure (SMILES)	Potency	cytoprotection (ATP increase)
NC(=O)N1c2ccccc2C=Cc2ccccc21	inconclusive: 25.1 µM [activator, partial curve]	
Cc1nc2ccc(S(=O)(=O)N(C)CC(=O)Nc3ccccc3F)cc2s1	inconclusive: 0.794 µM [activator, single point]	
COC(=O)C1=C(C)N(CCc2cc(OC)c(OC)c(OC)c2)C(=O)N[C@H]1c1ccc(Br)cc1	inconclusive: 0.891 µM [activator, partial curve]	
Cc1ccc(C)c(CS(=O)(=O)c2cn(CC(=O)N3CCCCC3)c3ccccc23)c1	inconclusive: 5.62 µM [activator, single point]	
CN(CCNC(=O)C1CCN(S(=O)(=O)c2cnc[nH]2)CC1)Cc1ccccc1	inactive	
CC1(C)CC(O)C(CCC(O)c2ccccc2)C(C)(C)N1 (centres undefined)	inconclusive: 0.447 µM [activator, single point]	
CCOc1cccc(NCc2cc3c(C(C)(C)C)nn(-c4ccccc4)c3[nH]c2=O)c1	inconclusive: 1.26 µM [activator, single point]	
Cc1nn(C)cc1S(=O)(=O)NC1CCCC1	inconclusive: 0.562 µM [activator, partial curve]	
CC(=O)Nc1ccc(N/C(C)=C/C(=O)c2cccnc2)cc1	inconclusive: 1.12 µM [activator, single point]	
CC(C)Nc1nnc(SCc2cc(=O)n3ccsc3n2)s1	inconclusive: 5.62 µM [activator, single point]	
CN(c1ccc(OCC(=O)OCC(=O)Nc2ccc(Br)cc2)cc1)S(=O)(=O)c1cccs1	inconclusive: 0.794 µM [activator, partial curve]	
Cc1cc(C)cc(OCC(=O)NNC(=O)CCC(=O)NCc2ccccc2)c1	inconclusive: 5.62 µM [activator, single point]	
O=C(Cc1ccc(Cl)cc1)Nc1ccncc1	inconclusive: 3.55 µM [activator, single point]	
O=C(NC1CCCCC1)c1ccc(CNc2nc(=S)[nH]c3ccccc23)cc1	inactive	
O=C(N/N=C/c1ccc2c(c1)OCO2)c1ccc(COc2cccc3cccnc23)cc1	inconclusive: 0.0079 µM [activator, full curve, poor fit]	
c1c[nH]cn1	inconclusive: 8.91 µM [activator, partial curve]	
Cn1cccc1C(=O)N1CCC2(CCCN(c3ccncc3)C2)CC1	inconclusive: 5.62 µM [activator, single point]	
C=C(C)CC(c1ccccc1)N(C(C)=O)c1ccco1 (centres undefined)	inconclusive: 5.62 µM [activator, single point]	
O=[N+]([O-])c1ccccc1CNc1ccc(F)c(Cl)c1	inconclusive: 1.26 µM [activator, single point]	
Cc1ccc(C2(c3noc(CN4CCC(C(=O)N5CCOCC5)CC4)n3)CCCC2)cc1	inconclusive: 1.26 µM [activator, single point]	
COc1cc(C(=O)OCC(=O)NC(=O)c2cccn2C)ccc1OC(F)F	inconclusive: 0.0891 µM [activator, partial curve, poor fit]	
CC(=O)c1c(C)[nH]c(C(=O)COc2cc(C)ccc2C(C)C)c1C	inactive	

Structure (SMILES)	Potency	cytoprotection (ATP increase)
O=C(O)CCc1nn2c3ccccc3n(CCO)c2nc1=O	inconclusive: 3.55 µM [activator, partial curve]	
FC(F)(F)Oc1ccc(Nc2nc3ccccc3o2)cc1	inconclusive: 3.55 µM [activator, full curve, poor fit]	
C[C@@H](CCCCC(=O)Nc1ccc(C(F)(F)F)cc1)NCCc1cnc[nH]1	inconclusive: 1.58 µM [activator, partial curve, poor fit]	
COc1ccc(-c2nn(CCC#N)cc2/C=N/O)cc1	inconclusive: 3.98 µM [activator, single point]	
CCCCOc1ncnc2c1[nH]c1ccc(OC)cc12	inactive	
COc1ccc(CCNC(=O)CSc2n[nH]c(C)c2[N+](=O)[O-])cc1OC	inconclusive: 0.355 µM [activator, partial curve, poor fit]	
c1ccc2c(c1)CC/C2=N/Nc1nc2ccccc2[nH]1		inactive: 1.4% [at 10 µM]
C=C1CC[C@H](O)C/C1=C/C=C1\CCC[C@]2(C)[C@@H]([C@H](C)CCCC(C)(C)O)CC[C@@H]12	inconclusive: 0.562 µM [activator, full curve, poor fit]	
COc1ccc(/C=C2\CCC/C(=C\C=N\N(C)C)C2=O)cc1	inconclusive: 0.891 µM [activator, single point]	
COc1ccc(NC(=O)Nc2sc(NS(=O)(=O)c3ccccc3)nc2C)cc1	inactive	
Cc1nnc(SC(C(=O)Nc2ccc(Cl)c([N+](=O)[O-])c2)c2ccccc2)[nH]c1=O (centres undefined)	inactive	
Cc1cc(=O)[nH]c(-n2ncc(C#N)c2N)n1	inconclusive: 3.16 µM [activator, single point]	
Fc1ccc(-c2nnc(CSc3nnc(-c4cccs4)o3)o2)cc1	inconclusive: 3.16 µM [activator, single point]	
COc1ccc(/C=C2\CCCC(C(=O)C(F)(F)F)=C2O)cc1	inactive	
CC(=O)c1ccc(-c2ccccc2[C@H]2[C@H]3C=CC[C@@H](C)[C@@H]3C(=O)N2Cc2ccccc2)cc1	inconclusive: 6.31 µM [activator, single point]	
Cc1nc(Nc2ccccc2)c2nc(-c3ccccc3)n(CCCN3CCCCC3C)c2n1 (centres undefined)	inactive	
CN1CCN(c2ccc3nc(-c4ccc5nc(-c6ccc(O)cc6)[nH]c5c4)[nH]c3c2)CC1	inconclusive: 3.98 µM [activator, single point]	
O=C(N/N=C/c1cn(-c2ccccc2)nc1-c1cccnc1)c1ccc(F)cc1	inconclusive: 2.82 µM [activator, partial curve]	
COc1ccc(O)c(C2=Nc3ccccc3N=C(c3ccco3)C2)c1	inactive	
